The target of this assay is Selenomethionine-labeled PLRV NRTD (residues 230-458) (potato leafroll virus) (UniProt P17525). Nature of the assay: crystal structure; SeMet PLRV NRTD at 6 mg/ml, sitting drop, 20 °C, 0.1 M Tris-HCl pH 8.5, 0.25 M ammonium sulfate, 14% PEG 8000, 3% ethylene glycol, 5 mM DTT; dimer in the asymmetric unit; both purified.

No constants are given. Whether binding was seen depends on the method and setting. Some entries that bind do so weakly or less than the wild type.

B1: Selenomethionine-labeled PLRV NRTD (residues 230-458) (domain or fragment, UniProt P17525 230-458)
chain: HERFIAYVGIPMLTIQARENDDQIILGSLGSQRMKYIEDENQNYTKFSSEYYSQSSMQAVPMYYFNVPKGQWSVDISCEGYQPTSSTSDPNRGRSDGMIAYSNADSDYWNVGEADGVKISKLRNDNTYRQGHPELEINSCHFREGQLLERDATISFHVEAPTDGRFFLVGPAIQKTAKYNYTISYGDWTDRDMELGLITVVLDEHLEGTGSANRVRRPPREGHTYMASP
modifications: selenomethionine in place of methionine
Turning to B1, the binding result is “binds”.

Values taken from PMC9606263, “Polerovirus N-terminal readthrough domain structures reveal molecular strategies for mitigating virus transmission by aphids” (Nature Communications, 2022).
